# Measurements: PubChem BioAssay AID651640 (Broad Institute, 2012)
# Hit rate of the full screen: of about 350,000 compounds, about 6,000 (1.7%) were called active. The shares of active, inactive and inconclusive entries below differ from those in the screen. No stated cut-off is given here; in the data, active means CPE inhibition above about 20% (passing the limit was not always enough); inconclusive means no clear call, values can overlap the other calls; tested in BHK-21 cells. Where a structure was tested more than once in an assay, its records may differ in their call.
# Test: protection of cells from dengue 2 killing – plate reader, single concentration, primary screen (AID 651640);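 further: 0% = median of neutral control wells and 100% = median of positive control wells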
# Conditions: DENV2-infected cells, cytopathic effect rescue, at 9.99 µM, stronger effect = higher value
row,SMILES,CPE inhibition
1,CC(C)NC(=O)c1csc([C@@H]2O[C@H](CO)[C@H](O)[C@H](O)[C@H]2O)n1,inconclusive: 42.3%
2,CN(Cc1ccc(F)cc1)C(=O)c1ccc(NC(=O)CC2SC(N3CCCC3)=NC2=O)cc1 (configuration not stated),inconclusive: 36.3%
3,CC1(C)CC(=O)C2=C(C1)OC1=C(C(=O)CC(C)(C)C1)C2c1ccc(O)c([N+](=O)[O-])c1,inactive: 5.27%
4,CCCC(=O)Nc1ccc2c(c1)C(=O)N(C)C[C@@H](OC)[C@@H](C)CN(Cc1ccc(-c3ccccn3)cc1)[C@H](C)CO2,active: 27.4%
5,O=C(c1ccco1)N1N=C(c2cccs2)CC1c1ccccc1O (configuration not stated),inactive: 1.01%
6,CN(C)C(=O)c1ccc(-c2ccc([C@H]3[C@@H](C#N)N(C(=O)C4CCCC4)[C@H]3CO)cc2)cc1,active: 21.5%
7,Cc1cc(C)c(NC(=O)CSc2nc3c(c(=O)n2C)SC(C)C3)c(C)c1 (configuration not stated),inconclusive: 21%
8,Cc1ccc(/C=N/Nc2nnc(Cc3ccccc3)c(=O)[nH]2)o1,inconclusive: 22.1%
9,CC1(C)CC(=O)C=C(c2ccccc2-c2ccc3cc[nH]c3c2)C1=O,inactive: 7.79%
10,Cc1ccc(NC(=O)N2CCCCCC2)c(C)c1,inconclusive: 46.6%
11,COc1ccc(C(=O)N(Cc2ccccc2)c2ccc(C)cc2)cc1S(=O)(=O)N1CCOCC1,inconclusive: 23.1%
12,Cc1noc(C)c1NC(=O)Nc1ccc2c(c1)C(=O)N([C@@H](C)CO)C[C@@H](C)[C@H](CN(C)C(=O)Nc1cccc3ccccc13)OCCCC[C@@H](C)O2,inactive: -1.18%
13,Cc1cccc(-c2noc(CN(C)C(=O)c3ccco3)n2)c1,inactive: -8.86%
14,CCCCCCN(C(=O)CCCCCN1C(=O)NC(c2ccc(-c3ccccc3)cc2)C(C(=O)OCc2ccccc2)=C1C)C(C)C(=O)NCCCC (configuration not stated),inconclusive: 32.8%
15,CC(C)(O)C#Cc1ccc([C@H]2[C@H](CO)N3CCCCN(S(C)(=O)=O)C[C@@H]23)cc1,inconclusive: 60.2%
16,Cc1cccn2cc(-c3ccc4c(c3)NC(=O)CO4)nc12,inactive: -7.07%
17,CC(C)C1Cc2ccccc2-c2[nH]c(=S)[nH]c(=O)c21 (configuration not stated),active: 72.2%
18,C[C@@]12CCC=C[C@H]1[C@H](c1ccoc1)N(Cc1ccccc1)C2=O,inconclusive: 28.4%
19,CC1(C)CC(=O)c2c(n(S(=O)(=O)c3ccccc3)c3ccc(NS(=O)(=O)c4ccccc4)cc23)C1,inconclusive: 42.8%
20,CCS(=O)(=O)NCC[C@H]1CC[C@H](NC(=O)Cc2ccccn2)[C@@H](CO)O1,inconclusive: 66.4%
21,Cc1ccccc1-c1ccc([C@H]2[C@@H](CO)N3C(=O)CN(C(=O)c4ccccn4)C[C@@H]23)cc1,inactive: -6.64%
22,C[C@H](CO)N1C[C@H](C)[C@@H](CN(C)C(=O)NC2CCCCC2)Oc2ccc(NC(=O)CCC(F)(F)F)cc2CC1=O,active: 31.9%
23,CC(=NNC(=S)N1CC2CCC(CC2)C1)c1cnccn1,inactive: 5.07%
24,CC(C)CC#Cc1ccc2c(c1)O[C@@H](CN(C)Cc1ccncc1)[C@@H](C)CN([C@@H](C)CO)S2(=O)=O,inactive: -0.231%

# A portion from further up:
row,SMILES,CPE inhibition
3,CC1(C)CC(=O)C2=C(C1)OC1=C(C(=O)CC(C)(C)C1)C2c1ccc(O)c([N+](=O)[O-])c1,inactive: 5.27%
4,CCCC(=O)Nc1ccc2c(c1)C(=O)N(C)C[C@@H](OC)[C@@H](C)CN(Cc1ccc(-c3ccccn3)cc1)[C@H](C)CO2,active: 27.4%
5,O=C(c1ccco1)N1N=C(c2cccs2)CC1c1ccccc1O (configuration not stated),inactive: 1.01%

# (further entries)

row,SMILES,CPE inhibition
1,CC(C)CC#Cc1cnc2c(c1)C(=O)N([C@H](C)CO)C[C@H](C)[C@H](CN(C)Cc1cncnc1)O2,inactive: -1.54%
2,O=S(=O)(c1ccccc1)N1CCCCN2[C@H](C1)[C@H](c1ccc(C#CC3CCCC3)cc1)[C@@H]2CO,inactive: -16.7%
3,CC(=O)N1[C@@H]2Cn3c(ccc(C4=CCCC4)c3=O)[C@H]1[C@@H](C(=O)NCC1CC1)[C@@H]2CO,inactive: -9.11%
4,COc1cccc(OCC(O)CN2CCc3ccccc3C2)c1 (configuration not stated),inconclusive: 30.8%
5,O=C(CC1NCCNC1=O)Nc1cc(Cl)cc(Cl)c1 (configuration not stated),inconclusive: 57.5%
6,C[C@H](CO)N1C[C@H](C)[C@@H](CN(C)C(=O)Nc2ccc(C(F)(F)F)cc2)Oc2c(NC(=O)C3CCOCC3)cccc2C1=O,inconclusive: 57.3%
7,O=C(C[C@@H]1CC[C@H]2[C@@H](COC[C@H](O)CN2C(=O)c2ccncc2)O1)Nc1ccc(-c2ccccc2)cc1,active: 27.7%
8,COc1ccccc1C(=O)NCCC(=O)N(C)CC(=O)Nc1c(Cl)cccc1Cl,inconclusive: 32%
9,O=C(NCc1ccccc1)/C(=C\c1cccc([N+](=O)[O-])c1)NC(=O)c1ccco1,active: 45.8%
10,C[C@@H]1CCCCO[C@H](CN(C)C(=O)NC2CCCCC2)[C@@H](C)CN([C@@H](C)CO)C(=O)c2cc(NC(=O)Cc3ccccc3)ccc2O1,inactive: -6.38%
11,C[C@H](NC(=O)C[C@H]1CC[C@H]2[C@@H](COC[C@@H](O)CN2C(=O)Nc2cc(Cl)cc(Cl)c2)O1)c1ccccc1,active: 22.9%
12,COc1ccc(CC(=O)Nc2cc(S(=O)(=O)N3CCCCC3)ccc2N2CCN(C)CC2)cc1,inconclusive: 61.4%
13,O=C(Cc1cccc(NC(=O)C2CCCN(C(=O)C3CC3)C2)c1)Nc1cccc(C(=O)N2CCCCC2)c1 (configuration not stated),active: 59.4%
14,COc1ccc(CN2CCCCCC2)cc1,inconclusive: 34.2%
15,C[C@H](O)C#Cc1ccc2c(c1)O[C@@H](CN(C)C(=O)CN(C)C)[C@H](C)CN([C@H](C)CO)S2(=O)=O,inconclusive: 20.4%
16,O=C(CN1C(=O)NC2(CCOc3ccccc32)C1=O)c1ccc(F)cc1 (configuration not stated),inconclusive: 42.4%
17,CCN(CC)C(=O)C1CCN(Cc2ccc(OCc3ccccc3)cc2)CC1,active: 27.6%
18,CCOC(=O)N1C=CC=C[C@@H]2[C@@H](N3C(=O)c4ccccc4C3=O)C(=O)N21,active: 62.8%
19,O=C(COC(=O)C1=COCCO1)Nc1ccc(Br)cc1Br,inactive: -4.74%
20,OC(CNCc1ccccc1)COc1ccccc1 (configuration not stated),inactive: -0.608%
21,O=C(NC1CCC1)[C@@H]1[C@@H](CO)[C@@H]2Cn3c(ccc(C4=CCCCC4)c3=O)[C@@H]2N1C(=O)C1CCOCC1,active: 55.7%
22,COCCNC(=O)C[C@@H]1C[C@@H]2c3cc(NC(=O)Nc4ccccc4)ccc3O[C@@H]2[C@H](CO)O1,inactive: 11.9%
23,Clc1ccc(CNc2ncnc3[nH]ncc23)c(Cl)c1,inactive: -4.22%
24,C[C@@H]1CN([C@@H](C)CO)C(=O)Cc2cc(NC(=O)Nc3ccccc3)ccc2O[C@@H]1CN(C)C(=O)Nc1ccc(F)cc1,active: 39.9%

row,SMILES,CPE inhibition
1,C[C@@H]1CN([C@H](C)CO)C(=O)c2cccc(NC(=O)C3CCOCC3)c2O[C@@H]1CN(C)Cc1ccc(-c2ccccc2)cc1,inconclusive: 20.2%
2,C[C@H](CO)N1C[C@H](C)[C@H](CN(C)Cc2cccnc2)Oc2cc(C3=CCCC3)ccc2S1(=O)=O,active: 28.3%
3,C[C@H](CO)N1C[C@H](C)[C@@H](CN(C)Cc2ccc(Oc3ccccc3)cc2)Oc2ccc(NC(=O)NC3CCCCC3)cc2C1=O,inconclusive: 22.6%
4,C[C@@H](NC(=O)C[C@H]1C=C[C@H](NC(=O)c2cccnc2)[C@H](CO)O1)c1ccccc1,inconclusive: 35.5%
5,CSCCC(NC(=O)c1cccc(C)c1)C(=O)O (configuration not stated),inconclusive: 24.7%
6,COc1cccc(NS(=O)(=O)c2ccc3c(c2)N(C(C)=O)CCO3)c1,inactive: 7.54%
7,CCN(CC)C(=O)Cn1cc(S(=O)(=O)CC(=O)NCCc2ccccc2)c2ccccc21,inconclusive: 62.1%
8,COc1ccc(S(=O)(=O)N(C)C[C@H]2Oc3c(NC(=O)c4ccncc4)cccc3C(=O)N([C@H](C)CO)C[C@@H]2C)cc1,active: 24.6%
9,O=C(C[C@@H]1CC[C@H]2[C@@H](COC[C@@H](O)CN2C(=O)c2ccncc2)O1)Nc1ccc(-c2ccccc2)cc1,active: 20.9%
10,COc1ccc(/C=N/N=C2/NC(=O)C(CC(=O)NC(C)C)S2)cc1 (configuration not stated),inconclusive: 37.7%
11,N#CC1=C(S)N(c2ccc(F)cc2)C2(CCCCC2)NC1=O,inconclusive: 20.3%
12,COCC(=O)Nc1ccc2c(c1)OC[C@@H](C)N(CCC(F)(F)F)C[C@@H](C)[C@H](OC)CN(C)C2=O,inactive: -7.05%
13,C[C@H](O)C#Cc1ccc([C@H]2[C@@H](CO)N3CCCCN(C(=O)c4ccc5c(c4)OCO5)C[C@H]23)cc1,inconclusive: 39%
14,COc1ccc(CN(C)C[C@@H]2OCCCC[C@@H](C)Oc3ccc(NS(=O)(=O)c4ccc(Cl)cc4)cc3C(=O)N([C@H](C)CO)C[C@H]2C)cc1,active: 70.4%
15,CCc1ccc(N(CC(=O)NCc2cccnc2)S(=O)(=O)c2ccccc2)cc1,inconclusive: 27.8%
16,Cc1ccc2nc(SC(C)C(=O)N3CCCCC3)[nH]c2c1 (configuration not stated),inactive: 1.78%
17,COc1ccc(C(=O)Nc2cc(-c3ccccc3)nn2-c2ccccc2F)cc1,inconclusive: 25.9%
18,N#Cc1ccc(-c2ccc(C3[C@H]4CNC[C@@H]3N4C(=O)NC3CCCCC3)cc2)cc1 (some centres not stated),active: 23%
19,O=S(=O)(Nc1cccc(-c2cn3cccnc3n2)c1)c1ccc(F)cc1,inactive: -13.8%
20,C[C@@H]1CN([C@@H](C)CO)C(=O)CCCn2nncc2CO[C@H]1CN(C)C(=O)Nc1ccccc1,active: 30.8%
21,C[C@H](CO)N1C[C@H](C)[C@@H](CN(C)S(=O)(=O)c2ccc(F)cc2)OCCCC[C@H](C)Oc2ccc(NC(=O)C3CCCCC3)cc2C1=O,inconclusive: 47.6%
22,CC1(C(=O)NCc2ccccc2)CN(S(C)(=O)=O)CC(=O)N1CCc1ccc(O)cc1 (configuration not stated),active: 26%
23,Cc1cc(OCC(=O)NC2CC(C)(C)NC(C)(C)C2)c(C)cc1Br,active: 42.1%
24,Cc1cccc(C)c1NC(=O)CN1CCN(C/C=C/c2ccccc2)CC1,inconclusive: 20.5%
